PubChem BioAssay AID652243 – Drosophila RNAi Screening Center, 2013
Assay: 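Fly regulators of androgen-dependent reporter output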 (primary screen). System: Drosophila S2R+ cells. Reagent: long dsRNA against Drosophila genes. Time to read-out: 72 h (48 h, then 24 h hormone). Challenge: synthetic androgen R1881 at 10 nM for 24 h. Measurement: 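Per-well raw luminescence of the androgen-driven firefly reporter and of the Renilla control, two replicates each, without normalisation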. Reading the numbers: firefly reporter light: higher = more light from androgen-responsive reporter; Renilla control light: higher = more constitutive control signal (cell number, transfection). Call rule: 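Hit when the log firefly-to-Renilla ratio dropped or increased by a fixed fold versus the mean of GFP or LacZ controls across duplicate plates; lowering cut given as 1.5 and as 3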. Meaning of the calls: active = hit: reporter lowered or raised; inactive = no hit.
The screen tested about 24,000 reagents; shown is an unselected part of those that have a named target and a result. In the full data, 246 (1%) got an active call. 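Plates not normalised; calls are printed but the firefly/Renilla ratio behind them is not deposited; fold cut for lowering reported inconsistently.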 Raw values are not corrected between plates. Entries without a mark were called inactive. Names joined by + are all predicted targets of the reagent. Not stated in the record: the amount of reagent.

predicted target	dsRNA	firefly reporter light, replicate 1	firefly reporter light, replicate 2	Renilla control light, replicate 1	Renilla control light, replicate 2
CheB93a (Chemosensory protein B 93a)	DRSC15044	1.97e5	1.99e5	3.49e6	3.44e6
CG6296	DRSC16013	62207	96108	4.51e5	4.54e5
Bem46	DRSC00275	1.48e5	95394	1.07e6	9.46e5
CG34253 + lncRNA:CR32194	DRSC09531	1.66e5	1.98e5	6.79e5	7.16e5
nod (no distributive disjunction)	DRSC18900	4.06e5	4.13e5	6.99e5	4.04e5
nod (no distributive disjunction)	DRSC20356	1.19e5	1.15e5	7.33e5	8.66e5
CG13084	DRSC02188	97789	1.34e5	1.18e6	1.24e6
CG31441	DRSC15723	1.11e5	2.02e5	1.84e6	2.15e6
CG31441	DRSC27463	2.21e5	3.25e5	7.11e5	7.32e5
CG11841	DRSC14399	61522	57995	5.10e5	2.71e5
CG11841	DRSC28256	3.15e5	4.97e5	1.09e6	1.43e6
CG16749	DRSC15146	1.42e5	1.57e5	2.84e6	2.58e6
CG16749	DRSC25605	8.95e5	1.18e6	1.04e6	1.22e6
Obp51a (Odorant-binding protein 51a)	DRSC22412	4.67e5	8.74e5	9.27e5	1.33e6
CG13540	DRSC04182	3.15e5	2.38e5	1.94e6	1.33e6
Tfb5 + CG31917	DRSC28677	3.19e5	4.60e5	1.07e6	9.87e5
Tango5 (Transport and Golgi organization 5)	DRSC18023	1.48e5	1.50e5	7.76e5	8.66e5
Tango5 (Transport and Golgi organization 5)	DRSC25500	1.25e6	1.54e6	1.65e6	1.96e6
Rab19	DRSC11260	2.49e5	3.60e5	2.53e6	2.49e6
Rab19	DRSC29485	4.34e5	5.25e5	1.14e6	1.14e6
sowah (sosondowah)	DRSC09186	1.52e5	77833	2.94e5	2.15e5
sowah (sosondowah)	DRSC09758	1.45e6	9.78e5	2.31e6	1.87e6
Jon65Aiv (Jonah 65Aiv)	DRSC10644	2.87e5	2.44e5	2.39e6	3.29e6
Jon65Aiv (Jonah 65Aiv)	DRSC25179	8.45e5	6.42e5	7.84e5	8.26e5
